According to article doi:10.1101/2024.01.03.574021:
Results are given in words; binding and its absence hold for the method and conditions named. Binding seen in cells or lysates may run through a third protein. These calls come from enrichment with a bait or labelling near it, and not all partners need be listed.

Sequences of proteins named here, by UniProt entry; tags and fusion partners are left off.
UniProt Q04206: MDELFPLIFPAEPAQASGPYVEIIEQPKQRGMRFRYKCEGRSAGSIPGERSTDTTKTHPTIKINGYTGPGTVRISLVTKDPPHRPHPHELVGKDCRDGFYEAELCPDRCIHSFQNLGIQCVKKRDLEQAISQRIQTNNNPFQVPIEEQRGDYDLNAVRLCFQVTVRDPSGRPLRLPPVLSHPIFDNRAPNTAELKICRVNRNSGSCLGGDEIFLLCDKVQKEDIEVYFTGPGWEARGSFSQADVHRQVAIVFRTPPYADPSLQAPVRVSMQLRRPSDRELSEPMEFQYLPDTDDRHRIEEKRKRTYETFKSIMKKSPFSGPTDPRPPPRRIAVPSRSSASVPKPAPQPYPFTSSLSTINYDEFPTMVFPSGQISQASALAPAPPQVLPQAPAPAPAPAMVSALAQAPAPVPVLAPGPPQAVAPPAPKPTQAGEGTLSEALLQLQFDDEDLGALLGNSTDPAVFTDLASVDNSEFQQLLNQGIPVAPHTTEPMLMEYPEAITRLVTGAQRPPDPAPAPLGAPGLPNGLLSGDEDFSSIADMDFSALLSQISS

B1: IRF1 (protein, UniProt P10914 1-325)
chain: MPITRMRMRPWLEMQINSNQIPGLIWINKEEMIFQIPWKHAAKHGWDINKDACLFRSWAIHTGRYKAGEKEPDPKTWKANFRCAMNSLPDIEEVKDQSRNKGSSAVRVYRMLPPLTKNQRKERKSKSSRDAKSKAKRKSCGDSSPDTFSDGLSSSTLPDDHSSYTVPGYMQDLEVEQALTPALSPCAVSSTLPDWHIPVEVVPDSTSDLYNFQVSPMPSTSEATTDEDEEGKLPEDIMKLLEQSEWQPTNVDGKGYLLNEPGVQPTSVYGDFSCKEEPEIDSPGGDIGLSLQRVFTDLKNMDATWLDSLLTPVRLPSIQAIPCAP
B2: FOSL1 (protein, UniProt P15407 1-271)
chain: MFRDFGEPGPSSGNGGGYGGPAQPPAAAQAAQQKFHLVPSINTMSGSQELQWMVQPHFLGPSSYPRPLTYPQYSPPQPRPGVIRALGPPPGVRRRPCEQISPEEEERRRVRRERNKLAAAKCRNRRKELTDFLQAETDKLEDEKSGLQREIEELQKQKERLELVLEAHRPICKIPEGAKEGDTGSTSGTSSPPAPCRPVPCISLSPGPVLEPEALHTPTLMTTPSLTPFTPSLVFTYPSTPEPCASAHRKSSSSSGDPSSDPLGSPTLLAL
B3: ATF7 (protein, UniProt P17544 1-483)
chain: MGDDRPFVCNAPGCGQRFTNEDHLAVHKHKHEMTLKFGPARTDSVIIADQTPTPTRFLKNCEEVGLFNELASSFEHEFKKAADEDEKKAAAGPLDMSLPSTPDIKIKEEEPVEVDSSPPDSPASSPCSPPLKEKEVTPKPVLISTPTPTIVRPGSLPLHLGYDPLHPTLPSPTSVITQAPPSNRQMGSPTGSLPLVMHLANGQTMPVLPGPPVQMPSVISLARPVSMVPNIPGIPGPPVNSSGSISPSGHPIPSEAKMRLKATLTHQVSSINGGCGMVVGTASTMVTARPEQSQILIQHPDAPSPAQPQVSPAQPTPSTGGRRRRTVDEDPDERRQRFLERNRAAASRCRQKRKLWVSSLEKKAEELTSQNIQLSNEVTLLRNEVAQLKQLLLAHKDCPVTALQKKTQGYLESPKESSEPTGSPAPVIQHSSATAPSNGLSVRSAAEAVATSVLTQMASQRTELSMPIQSHVIMTPQSQSAGR
B4: CEBPD (protein, UniProt P49716 1-269)
chain: MSAALFSLDGPARGAPWPAEPAPFYEPGRAGKPGRGAEPGALGEPGAAAPAMYDDESAIDFSAYIDSMAAVPTLELCHDELFADLFNSNHKAGGAGPLELLPGGPARPLGPGPAAPRLLKREPDWGDGDAPGSLLPAQVAACAQTVVSLAAAGQPTPPTSPEPPRSSPRQTPAPGPAREKSAGKRGPDRGSPEYRQRRERNNIAVRKSRDKAKRRNQEMQQKLVELSAENEKLHQRVEQLTRDLAGLRQFFKQLPSPPFLPAAGTADCR
B5: N4BP3 (protein, UniProt O15049 1-544)
chain: MATAPGPAGIAMGSVGSLLERQDFSPEELRAALAGSRGSRQPDGLLRKGLGQREFLSYLHLPKKDSKSTKNTKRAPRNEPADYATLYYREHSRAGDFSKTSLPERGRFDKCRIRPSVFKPTAGNGKGFLSMQSLASHKGQKLWRSNGSLHTLACHPPLSPGPRASQARAQLLHALSLDEGGPEPEPSLSDSSSGGSFGRSPGTGPSPFSSSLGHLNHLGGSLDRASQGPKEAGPPAVLSCLPEPPPPYEFSCSSAEEMGAVLPETCEELKRGLGDEDGSNPFTQVLEERQRLWLAELKRLYVERLHEVTQKAERSERNLQLQLFMAQQEQRRLRKELRAQQGLAPEPRAPGTLPEADPSARPEEEARWEVCQKTAEISLLKQQLREAQAELAQKLAEIFSLKTQLRGSRAQAQAQDAELVRLREAVRSLQEQAPREEAPGSCETDDCKSRGLLGEAGGSEARDSAEQLRAELLQERLRGQEQALRFEQERRTWQEEKERVLRYQREIQGGYMDMYRRNQALEQELRALREPPTPWSPRLESSKI

Molecular target: p65(wt)-HA-miniTurbo (human) (UniProt Q04206)
Test: proximity labelling

Binder | binding
B1 | binds
B2 | binds
B3 | binds
B4 | binds
B5 | binds
